In PMC8632809:
Results are given in words; binding and its absence hold for the method and conditions named. In cells and extracts the contact can be indirect. Some binding calls cover weakened binding; strength is not graded here.

Protein sequences, listed by entry. Tags and fused reporters are not part of them.
UniProt O94851: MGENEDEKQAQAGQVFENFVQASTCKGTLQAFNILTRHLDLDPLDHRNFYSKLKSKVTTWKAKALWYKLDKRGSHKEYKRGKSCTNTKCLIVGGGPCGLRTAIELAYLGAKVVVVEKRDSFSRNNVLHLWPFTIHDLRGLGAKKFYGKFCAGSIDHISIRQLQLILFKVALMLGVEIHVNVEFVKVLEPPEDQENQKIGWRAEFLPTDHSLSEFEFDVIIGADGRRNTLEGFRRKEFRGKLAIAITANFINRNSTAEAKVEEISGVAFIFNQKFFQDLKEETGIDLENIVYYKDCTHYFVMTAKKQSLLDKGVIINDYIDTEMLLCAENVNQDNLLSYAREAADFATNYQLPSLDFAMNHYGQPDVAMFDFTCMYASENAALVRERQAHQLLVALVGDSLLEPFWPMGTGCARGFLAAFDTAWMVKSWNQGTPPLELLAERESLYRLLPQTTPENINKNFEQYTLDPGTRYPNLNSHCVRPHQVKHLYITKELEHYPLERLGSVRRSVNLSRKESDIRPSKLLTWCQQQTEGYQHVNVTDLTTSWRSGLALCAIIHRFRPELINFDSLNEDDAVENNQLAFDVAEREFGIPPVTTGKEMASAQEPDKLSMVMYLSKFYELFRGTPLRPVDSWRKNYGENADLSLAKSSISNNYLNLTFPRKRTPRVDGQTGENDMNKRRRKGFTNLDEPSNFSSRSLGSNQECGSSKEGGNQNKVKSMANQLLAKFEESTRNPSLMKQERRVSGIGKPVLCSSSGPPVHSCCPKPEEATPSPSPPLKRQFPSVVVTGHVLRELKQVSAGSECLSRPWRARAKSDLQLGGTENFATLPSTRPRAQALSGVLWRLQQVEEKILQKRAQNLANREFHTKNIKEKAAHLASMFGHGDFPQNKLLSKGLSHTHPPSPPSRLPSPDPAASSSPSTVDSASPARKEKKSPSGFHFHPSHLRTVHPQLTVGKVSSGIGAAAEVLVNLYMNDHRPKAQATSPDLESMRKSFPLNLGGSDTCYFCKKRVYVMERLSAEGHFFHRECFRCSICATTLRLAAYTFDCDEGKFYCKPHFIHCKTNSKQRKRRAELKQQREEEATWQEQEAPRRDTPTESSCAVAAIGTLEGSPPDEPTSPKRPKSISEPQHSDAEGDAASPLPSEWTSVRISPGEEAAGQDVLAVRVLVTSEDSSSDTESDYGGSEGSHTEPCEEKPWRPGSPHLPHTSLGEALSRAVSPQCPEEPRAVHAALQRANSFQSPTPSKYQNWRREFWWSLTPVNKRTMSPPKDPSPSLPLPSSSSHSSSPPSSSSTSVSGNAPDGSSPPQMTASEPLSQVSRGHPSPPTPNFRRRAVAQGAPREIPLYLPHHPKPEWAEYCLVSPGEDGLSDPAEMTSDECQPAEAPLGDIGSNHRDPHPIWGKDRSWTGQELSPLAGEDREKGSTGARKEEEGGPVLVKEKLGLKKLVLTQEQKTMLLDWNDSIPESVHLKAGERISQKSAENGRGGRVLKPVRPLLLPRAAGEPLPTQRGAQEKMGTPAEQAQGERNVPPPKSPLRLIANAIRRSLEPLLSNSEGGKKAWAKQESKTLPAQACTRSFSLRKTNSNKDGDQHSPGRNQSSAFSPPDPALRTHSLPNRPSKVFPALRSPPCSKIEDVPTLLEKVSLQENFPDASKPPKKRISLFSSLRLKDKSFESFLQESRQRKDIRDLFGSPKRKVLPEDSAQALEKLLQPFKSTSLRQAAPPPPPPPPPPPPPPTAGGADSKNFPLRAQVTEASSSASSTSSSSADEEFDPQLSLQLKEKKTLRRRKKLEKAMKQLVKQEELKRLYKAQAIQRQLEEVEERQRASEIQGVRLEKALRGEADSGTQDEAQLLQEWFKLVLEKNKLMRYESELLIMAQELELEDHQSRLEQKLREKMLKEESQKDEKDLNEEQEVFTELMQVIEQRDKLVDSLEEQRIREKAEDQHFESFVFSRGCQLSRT

Molecular target: T1, TGF receptor-type I (TGFRI) (human (endogenous in GBM cells; U87 and U251 lines were used)) (UniProt P36897)
T1 sequence: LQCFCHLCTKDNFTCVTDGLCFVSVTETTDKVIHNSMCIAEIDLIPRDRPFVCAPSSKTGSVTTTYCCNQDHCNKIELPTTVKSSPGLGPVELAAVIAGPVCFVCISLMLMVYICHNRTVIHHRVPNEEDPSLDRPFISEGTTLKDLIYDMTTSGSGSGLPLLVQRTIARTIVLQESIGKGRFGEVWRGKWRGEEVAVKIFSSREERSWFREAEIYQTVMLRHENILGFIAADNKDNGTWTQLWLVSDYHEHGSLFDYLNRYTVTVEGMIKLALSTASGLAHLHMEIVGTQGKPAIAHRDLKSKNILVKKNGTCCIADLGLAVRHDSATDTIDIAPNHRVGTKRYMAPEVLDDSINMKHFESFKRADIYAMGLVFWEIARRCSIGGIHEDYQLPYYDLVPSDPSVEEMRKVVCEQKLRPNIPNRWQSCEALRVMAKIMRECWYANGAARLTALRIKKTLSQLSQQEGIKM
Test: co-IP; lysates of GBM cells (RIPA lysis buffer with protease and phosphatase inhibitors) immunoprecipitated with anti-MICAL2-agarose or anti-TGFRI-agarose antibodies, anti-IgG as control; Western blot with the indicated antibodies

“molecule interacting with CasL2 (MICAL2) (from UniProt O94851 1-1957)” was tested, and the binding was “binds”.
